Experimental data from the supplement of paper PMC10849652.
The other results are listed elsewhere or left out.

Sequences of proteins named here, by UniProt entry; tags and fusion partners are left off. A change or cut given only in a name is not applied to a line headed by its entry.
UniProt Q9BSJ8: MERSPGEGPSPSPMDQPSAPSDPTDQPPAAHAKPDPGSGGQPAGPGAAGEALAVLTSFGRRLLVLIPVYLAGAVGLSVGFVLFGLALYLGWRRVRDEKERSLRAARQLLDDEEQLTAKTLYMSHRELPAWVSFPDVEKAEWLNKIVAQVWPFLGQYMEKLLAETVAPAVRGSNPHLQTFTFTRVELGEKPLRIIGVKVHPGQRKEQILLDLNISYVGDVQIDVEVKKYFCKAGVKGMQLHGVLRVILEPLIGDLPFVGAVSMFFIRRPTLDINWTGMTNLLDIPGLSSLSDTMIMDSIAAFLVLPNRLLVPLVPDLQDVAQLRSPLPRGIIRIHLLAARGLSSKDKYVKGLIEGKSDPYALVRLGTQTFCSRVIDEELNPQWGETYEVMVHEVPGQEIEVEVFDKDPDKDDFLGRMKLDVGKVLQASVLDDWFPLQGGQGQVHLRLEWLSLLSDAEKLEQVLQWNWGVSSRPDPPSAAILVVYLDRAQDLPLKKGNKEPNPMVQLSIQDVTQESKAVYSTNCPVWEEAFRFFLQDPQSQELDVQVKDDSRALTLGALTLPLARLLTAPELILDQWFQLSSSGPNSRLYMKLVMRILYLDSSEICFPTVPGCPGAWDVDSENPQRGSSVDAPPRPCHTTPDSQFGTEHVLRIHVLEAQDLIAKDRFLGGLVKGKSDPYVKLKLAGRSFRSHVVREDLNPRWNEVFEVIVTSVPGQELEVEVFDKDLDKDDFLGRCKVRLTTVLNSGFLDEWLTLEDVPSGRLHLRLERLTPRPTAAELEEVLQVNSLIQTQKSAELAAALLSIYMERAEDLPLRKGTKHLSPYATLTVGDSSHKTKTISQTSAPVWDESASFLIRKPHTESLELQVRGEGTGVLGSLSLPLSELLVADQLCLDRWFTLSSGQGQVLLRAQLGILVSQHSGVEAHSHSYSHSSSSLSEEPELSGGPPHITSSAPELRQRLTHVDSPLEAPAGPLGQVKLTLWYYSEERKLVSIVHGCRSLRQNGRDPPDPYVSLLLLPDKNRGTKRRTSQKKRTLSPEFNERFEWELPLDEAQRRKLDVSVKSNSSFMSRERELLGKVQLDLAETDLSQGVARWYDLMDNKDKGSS
UniProt Q6P587: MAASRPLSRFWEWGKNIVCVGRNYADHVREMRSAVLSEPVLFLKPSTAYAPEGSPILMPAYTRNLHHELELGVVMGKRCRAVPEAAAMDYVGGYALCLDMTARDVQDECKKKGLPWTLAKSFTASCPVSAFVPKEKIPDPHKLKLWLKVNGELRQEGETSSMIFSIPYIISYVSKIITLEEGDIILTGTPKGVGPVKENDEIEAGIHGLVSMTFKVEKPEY
UniProt Q96E09: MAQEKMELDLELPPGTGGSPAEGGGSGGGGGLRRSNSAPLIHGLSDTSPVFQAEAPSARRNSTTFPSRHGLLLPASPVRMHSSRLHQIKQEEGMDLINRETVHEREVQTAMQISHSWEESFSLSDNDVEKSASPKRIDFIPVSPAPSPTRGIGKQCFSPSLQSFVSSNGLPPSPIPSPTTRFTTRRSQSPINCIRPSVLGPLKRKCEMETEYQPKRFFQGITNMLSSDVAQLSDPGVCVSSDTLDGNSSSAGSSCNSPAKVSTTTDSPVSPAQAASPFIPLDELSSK
UniProt Q8WU58: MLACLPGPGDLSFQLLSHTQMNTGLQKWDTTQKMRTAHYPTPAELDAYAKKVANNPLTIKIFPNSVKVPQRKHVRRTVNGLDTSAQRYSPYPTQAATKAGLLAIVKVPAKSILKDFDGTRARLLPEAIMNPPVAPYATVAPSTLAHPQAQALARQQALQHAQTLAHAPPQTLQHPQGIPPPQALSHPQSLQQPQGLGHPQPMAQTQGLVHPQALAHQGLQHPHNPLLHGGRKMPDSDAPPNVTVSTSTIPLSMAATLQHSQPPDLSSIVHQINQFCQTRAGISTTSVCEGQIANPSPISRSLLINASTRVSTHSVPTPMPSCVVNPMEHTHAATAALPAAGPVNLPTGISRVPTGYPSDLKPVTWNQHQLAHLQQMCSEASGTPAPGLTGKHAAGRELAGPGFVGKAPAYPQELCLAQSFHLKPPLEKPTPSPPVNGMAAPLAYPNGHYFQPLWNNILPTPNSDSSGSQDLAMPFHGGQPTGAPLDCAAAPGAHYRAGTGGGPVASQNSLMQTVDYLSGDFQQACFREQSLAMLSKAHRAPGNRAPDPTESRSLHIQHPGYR
UniProt Q5W0V3: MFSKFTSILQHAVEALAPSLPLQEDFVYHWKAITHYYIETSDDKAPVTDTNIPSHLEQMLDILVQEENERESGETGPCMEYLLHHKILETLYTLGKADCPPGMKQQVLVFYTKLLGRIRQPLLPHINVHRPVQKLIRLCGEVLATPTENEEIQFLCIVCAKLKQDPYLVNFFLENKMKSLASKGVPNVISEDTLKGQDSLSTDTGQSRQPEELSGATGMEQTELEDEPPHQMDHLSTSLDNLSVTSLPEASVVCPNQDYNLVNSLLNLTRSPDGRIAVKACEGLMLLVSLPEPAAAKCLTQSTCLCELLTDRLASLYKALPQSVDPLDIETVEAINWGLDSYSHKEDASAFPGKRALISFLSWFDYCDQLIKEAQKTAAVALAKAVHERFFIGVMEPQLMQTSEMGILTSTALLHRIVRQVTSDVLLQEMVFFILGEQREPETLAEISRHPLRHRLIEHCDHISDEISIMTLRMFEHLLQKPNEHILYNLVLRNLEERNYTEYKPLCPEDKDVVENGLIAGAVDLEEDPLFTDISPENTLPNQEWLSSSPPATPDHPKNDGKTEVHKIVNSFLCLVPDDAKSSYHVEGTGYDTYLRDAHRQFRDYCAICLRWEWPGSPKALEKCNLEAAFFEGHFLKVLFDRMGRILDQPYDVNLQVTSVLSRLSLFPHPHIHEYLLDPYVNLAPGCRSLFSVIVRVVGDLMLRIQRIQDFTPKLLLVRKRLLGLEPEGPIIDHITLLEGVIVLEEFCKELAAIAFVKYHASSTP
UniProt Q9NWS6: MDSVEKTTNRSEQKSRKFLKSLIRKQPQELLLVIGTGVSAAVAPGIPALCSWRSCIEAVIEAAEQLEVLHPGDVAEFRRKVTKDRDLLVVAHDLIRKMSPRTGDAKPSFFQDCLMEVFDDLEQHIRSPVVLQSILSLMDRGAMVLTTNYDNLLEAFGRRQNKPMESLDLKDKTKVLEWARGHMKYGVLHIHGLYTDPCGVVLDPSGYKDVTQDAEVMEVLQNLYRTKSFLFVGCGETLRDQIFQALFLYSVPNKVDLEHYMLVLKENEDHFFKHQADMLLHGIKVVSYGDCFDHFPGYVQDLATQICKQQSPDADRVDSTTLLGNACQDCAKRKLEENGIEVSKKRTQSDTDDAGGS
UniProt O75063: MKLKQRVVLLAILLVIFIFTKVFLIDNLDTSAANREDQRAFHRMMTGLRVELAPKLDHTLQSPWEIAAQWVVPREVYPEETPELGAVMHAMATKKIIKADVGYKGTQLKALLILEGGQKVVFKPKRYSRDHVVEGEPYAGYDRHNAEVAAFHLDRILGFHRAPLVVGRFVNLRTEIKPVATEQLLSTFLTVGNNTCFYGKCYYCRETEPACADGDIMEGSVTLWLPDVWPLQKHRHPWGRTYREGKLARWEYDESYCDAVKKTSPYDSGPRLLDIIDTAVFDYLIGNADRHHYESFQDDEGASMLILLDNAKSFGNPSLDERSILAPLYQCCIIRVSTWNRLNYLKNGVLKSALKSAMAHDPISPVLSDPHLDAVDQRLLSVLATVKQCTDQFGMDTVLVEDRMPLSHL
UniProt Q6P2I3: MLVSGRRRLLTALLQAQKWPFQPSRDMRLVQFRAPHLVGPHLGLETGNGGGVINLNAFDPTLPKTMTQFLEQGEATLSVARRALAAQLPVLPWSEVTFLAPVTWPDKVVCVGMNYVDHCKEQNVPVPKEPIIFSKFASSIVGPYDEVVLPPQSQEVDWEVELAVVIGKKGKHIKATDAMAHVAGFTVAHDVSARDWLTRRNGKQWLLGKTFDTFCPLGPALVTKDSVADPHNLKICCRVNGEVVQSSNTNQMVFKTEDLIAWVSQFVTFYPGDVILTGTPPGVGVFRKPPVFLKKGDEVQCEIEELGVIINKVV
UniProt Q8N8J7: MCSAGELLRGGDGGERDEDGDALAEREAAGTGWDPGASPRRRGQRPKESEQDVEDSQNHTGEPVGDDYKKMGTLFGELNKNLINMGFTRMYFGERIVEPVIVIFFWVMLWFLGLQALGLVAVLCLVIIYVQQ
UniProt Q9Y3B2, whole entry, looked up: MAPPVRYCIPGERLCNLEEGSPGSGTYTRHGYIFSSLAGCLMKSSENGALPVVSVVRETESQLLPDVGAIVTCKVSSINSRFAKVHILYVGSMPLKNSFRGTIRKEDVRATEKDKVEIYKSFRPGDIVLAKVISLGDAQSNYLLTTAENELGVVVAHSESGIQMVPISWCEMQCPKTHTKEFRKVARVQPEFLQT
UniProt Q9NPD3, whole entry, looked up: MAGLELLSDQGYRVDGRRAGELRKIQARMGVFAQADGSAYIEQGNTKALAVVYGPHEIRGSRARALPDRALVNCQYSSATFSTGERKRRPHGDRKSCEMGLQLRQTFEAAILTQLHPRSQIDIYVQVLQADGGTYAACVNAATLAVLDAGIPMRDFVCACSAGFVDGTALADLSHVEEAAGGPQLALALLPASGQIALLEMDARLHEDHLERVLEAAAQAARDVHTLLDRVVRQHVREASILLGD
UniProt Q5T8I3: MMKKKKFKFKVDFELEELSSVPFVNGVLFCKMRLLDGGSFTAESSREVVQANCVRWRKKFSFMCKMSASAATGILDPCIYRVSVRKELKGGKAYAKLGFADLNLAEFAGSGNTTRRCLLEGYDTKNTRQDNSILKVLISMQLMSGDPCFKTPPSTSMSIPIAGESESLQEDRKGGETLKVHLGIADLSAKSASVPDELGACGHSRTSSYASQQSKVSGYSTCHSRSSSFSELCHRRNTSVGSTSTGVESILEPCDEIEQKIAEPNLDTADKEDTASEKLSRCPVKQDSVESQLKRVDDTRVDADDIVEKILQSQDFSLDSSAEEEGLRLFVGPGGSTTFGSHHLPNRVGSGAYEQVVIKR
UniProt Q01844: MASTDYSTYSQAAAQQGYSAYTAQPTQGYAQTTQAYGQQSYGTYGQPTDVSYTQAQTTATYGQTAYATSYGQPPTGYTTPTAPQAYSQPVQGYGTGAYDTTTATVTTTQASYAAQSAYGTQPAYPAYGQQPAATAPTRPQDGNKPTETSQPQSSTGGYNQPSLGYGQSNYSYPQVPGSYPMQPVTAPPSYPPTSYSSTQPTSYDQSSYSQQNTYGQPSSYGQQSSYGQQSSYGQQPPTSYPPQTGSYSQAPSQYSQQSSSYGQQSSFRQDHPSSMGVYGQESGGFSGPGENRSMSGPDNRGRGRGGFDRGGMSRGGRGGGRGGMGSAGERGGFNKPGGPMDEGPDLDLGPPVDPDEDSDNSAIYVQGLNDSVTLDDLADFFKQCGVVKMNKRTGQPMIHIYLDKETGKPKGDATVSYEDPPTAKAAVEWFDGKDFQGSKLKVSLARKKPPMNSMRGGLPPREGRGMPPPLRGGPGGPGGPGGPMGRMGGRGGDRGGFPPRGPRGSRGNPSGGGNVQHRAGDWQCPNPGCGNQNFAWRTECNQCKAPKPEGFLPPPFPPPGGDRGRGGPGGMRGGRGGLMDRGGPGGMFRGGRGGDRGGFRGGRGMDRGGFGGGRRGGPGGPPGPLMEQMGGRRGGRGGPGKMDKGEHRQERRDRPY
UniProt Q9NQT4, whole entry, looked up: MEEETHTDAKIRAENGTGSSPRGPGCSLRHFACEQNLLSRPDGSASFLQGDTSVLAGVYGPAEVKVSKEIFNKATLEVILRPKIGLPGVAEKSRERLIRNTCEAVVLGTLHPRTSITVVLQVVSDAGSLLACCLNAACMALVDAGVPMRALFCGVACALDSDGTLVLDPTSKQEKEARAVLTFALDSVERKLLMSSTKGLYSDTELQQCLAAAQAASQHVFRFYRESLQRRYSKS
UniProt O60645: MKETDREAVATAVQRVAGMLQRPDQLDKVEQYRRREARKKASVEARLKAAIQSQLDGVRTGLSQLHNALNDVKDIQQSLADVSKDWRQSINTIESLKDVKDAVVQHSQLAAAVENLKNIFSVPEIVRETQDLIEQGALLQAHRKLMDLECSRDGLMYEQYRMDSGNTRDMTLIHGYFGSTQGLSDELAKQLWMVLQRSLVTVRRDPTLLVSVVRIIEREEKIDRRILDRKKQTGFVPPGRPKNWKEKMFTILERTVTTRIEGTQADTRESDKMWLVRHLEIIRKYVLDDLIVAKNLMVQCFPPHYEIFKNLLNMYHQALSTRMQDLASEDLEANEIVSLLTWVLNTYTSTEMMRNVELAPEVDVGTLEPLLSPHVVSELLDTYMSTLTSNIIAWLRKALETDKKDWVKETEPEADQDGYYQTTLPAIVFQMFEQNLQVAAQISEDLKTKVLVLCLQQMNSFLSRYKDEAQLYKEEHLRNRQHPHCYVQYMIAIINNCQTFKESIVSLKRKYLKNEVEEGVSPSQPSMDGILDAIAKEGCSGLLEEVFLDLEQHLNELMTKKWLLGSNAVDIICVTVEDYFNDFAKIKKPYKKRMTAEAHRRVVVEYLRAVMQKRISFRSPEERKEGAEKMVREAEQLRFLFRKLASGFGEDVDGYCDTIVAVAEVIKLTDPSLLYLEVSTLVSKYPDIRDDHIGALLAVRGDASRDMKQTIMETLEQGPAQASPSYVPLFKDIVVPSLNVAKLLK

How the values were obtained:
Assay in all cases: log2 fold change, soluble protein after heating vs DMSO (PISA); higher = thermal stabilisation; K562 lysate, 10 uM; active = over 0.2 and 3.5 SD of the protein, either way, in both replicates (recomputed)
[1] = compound: NCC(=O)Nc1ccc(-n2nc(C(F)(F)F)cc2-c2ccc3c(ccc4ccccc43)c2)cc1
Procedure, shortened: (§1)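 Following dounce homogenisation of K562 pellets in PBS pH 7.4 with 1 mM MgCl2, crude extract at 1 mg/mL protein was incubated for 30 min with 10 μM compound. Aliquots were then heated for 3 min over 48°C-58°C and pooled, NP-40 was added to 0.5% at 4°C, and soluble protein was recovered as the supernatant at 21,000xg for 90 min. Channel-sum-equalised TMTpro 16plex LC-MS/MS quantified this protein. Each value, from duplicates, is a log-two fold change in thermal stability relative to solvent controls.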

[2] = compound: O=C(CCCCCCC(=O)Nc1ccccc1)NO [vorinostat]
Procedure, shortened: as §1

[3] = compound: O=C(O)c1ccc2c(c1)nc(Nc1cccc(Cl)c1)c1ccncc12 [silmitasertib]
Procedure, shortened: as §1

[4] = compound: O=C1NC(=O)C(c2cnc3ccccn23)=C1c1cn2c3c(cc(F)cc13)CN(C(=O)N1CCCCC1)CC2
Procedure, shortened: as §1

[5] = compound: c1cn2cc(-c3ccc4cn[nH]c4c3)nc(Nc3ccc(N4CCOCC4)cc3)c2n1 [entospletinib]
Procedure, shortened: as §1

Measured: log2 fold change

FAM160A2 isoform 2 (UniProt Q8N612)
inactive: [1] 0.006 | [2] -0.043 | [3] 0.188 | [4] -0.006 | [5] -0.009

EXOSC7 (UniProt Q15024)
inactive: [1] -0.003 | [2] 0.158 | [3] 0.004 | [4] 0.015 | [5] 0.014

ESYT1 isoform 2 (UniProt Q9BSJ8)
inactive: [1] -0.057 | [2] -0.053 | [3] 0.034 | [4] -0.071 | [5] 0.011

FAHD1 (UniProt Q6P587)
inactive: [1] 0.17 | [2] 0.092 | [3] -0.029 | [4] 0.048 | [5] 0.011

EXOSC8 (UniProt Q96B26)
inactive: [1] -0.055 | [2] 0.092 | [3] 0.014 | [4] -0.01 | [5] -0.02

ERP44 (UniProt Q9BS26)
inactive: [1] 0.019 | [2] 0.07 | [3] 0.01 | [4] -0.012 | [5] -0.009

FAM122A (UniProt Q96E09)
inactive: [1] 0.011 | [2] 0.182 | [3] 0.036 | [4] -0.009 | [5] -0.047

FAM222B (UniProt Q8WU58)
inactive: [1] 0.145 | [2] -0.221 | [3] 0.086 | [4] 0 | [5] -0.117

FAM160B1 (UniProt Q5W0V3)
inactive: [1] 0.006 | [2] -0.071 | [3] 0.01 | [4] 0.018 | [5] 0.039

FAM118A (UniProt Q9NWS6)
inactive: [1] 0.027 | [3] 0.024 | [4] -0.003 | [5] -0.014
active: [2] -0.834

EXOC6 (UniProt Q8TAG9)
active: [2] -0.301
inactive: [1] -0.074 | [3] 0.057 | [4] -0.006 | [5] 0.021

ESS2 (UniProt Q96DF8)
inactive: [1] 0.08 | [2] 0 | [3] -0.04 | [4] -0.007 | [5] -0.006

FAM20B (UniProt O75063)
inactive: [1] 0.011 | [2] 0.101 | [3] -0.003 | [4] -0.019 | [5] -0.005

Pulled one by one from the list above, 2 records:
FAM222B (UniProt Q8WU58)
inactive: [1] 0.145 | [2] -0.221 | [3] 0.086 | [4] 0 | [5] -0.117

FAM122A (UniProt Q96E09)
inactive: [1] 0.011 | [2] 0.182 | [3] 0.036 | [4] -0.009 | [5] -0.047

Next part:

FAM3C (UniProt Q92520)
inactive: [1] 0.013 | [2] 0.132 | [3] -0.018 | [4] 0.038 | [5] -0.004

FAHD2B (UniProt Q6P2I3)
inactive: [1] 0.12 | [2] 0.209 | [3] -0.086 | [4] -0.033 | [5] -0.108

FAM241A (UniProt Q8N8J7)
inactive: [1] -0.066 | [2] 0.07 | [3] 0.071 | [4] -0.006 | [5] -0.08

EXOSC1 (UniProt Q9Y3B2)
inactive: [1] -0.03 | [2] 0.151 | [3] -0.008 | [4] 0.04 | [5] -0.004

ERLIN1 (UniProt O75477)
inactive: [1] -0.07 | [2] 0.063 | [3] 0.064 | [4] 0.03 | [5] 0.023

FAM120B (UniProt Q96EK7)
active: [2] -0.299
inactive: [1] -0.002 | [3] 0.041 | [4] -0.022 | [5] -0.001

EXOSC4 (UniProt Q9NPD3)
inactive: [1] 0.027 | [2] 0.138 | [3] 0.007 | [4] 0.008 | [5] -0.008

FAM102B (UniProt Q5T8I3)
inactive: [1] -0.002 | [2] -0.259 | [3] -0.485 | [4] -0.05 | [5] -0.03

ETHE1 (UniProt O95571)
inactive: [1] -0.01 | [2] -0.113 | [3] 0.009 | [4] 0 | [5] -0.02

EWSR1 isoform 5 (UniProt Q01844)
inactive: [1] 0.027 | [2] 0.036 | [3] -0.034 | [4] 0.006 | [5] 0.014

EXOSC5 (UniProt Q9NQT4)
inactive: [1] 0.012 | [2] 0.033 | [3] -0.001 | [4] -0.071 | [5] -0.013

FAM114A2 (UniProt Q9NRY5)
inactive: [1] -0.056 | [2] 0.262 | [3] -0.015 | [4] -0.034 | [5] 0

EXOC3 (UniProt O60645)
active: [2] -0.221
inactive: [1] 0.018 | [3] 0.03 | [4] 0.002 | [5] -0.026
